PubChem BioAssay AID504764 – Drosophila RNAi Screening Center | 2011
The deposit covers about 22,000 reagents; this is an unselected part of those with a known target gene and a result. In the full data, 403 (1.9%) were called active. 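Unnormalised raw counts per well; ratio z-scores behind the hit calls and whether each hit raises or lowers signal are not deposited.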 The numbers tell different reagents against one gene apart. Reagent sequences are not shown. The record does not give: the amount of reagent.

Assay: 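Genes whose knock-down alters Notch-dependent transcription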 (primary screen)
System: Drosophila Kc167 cells
Reagent: long dsRNA against Drosophila genes
Time to read-out: about 5 days (4 days dsRNA, then 24 h after transfection)
Challenge: transfection of constitutively active membrane-tethered Notch lacking the extracellular domain, read 24 h later
Detection: 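Firefly luciferase from an E(spl)m3 reporter with active Notch, plus control-promoter and uninduced reporter wells for normalisation; unnormalised counts, duplicate wells a and b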
Direction: induced reporter light, run 1, well a and induced reporter light, run 1, well b: higher = more light from the Notch target reporter with active Notch; control promoter light, run 1, well a and control promoter light, run 1, well b: higher = more light from the viral control promoter (cell number, transfection, viability); uninduced reporter light, run 1, well a: higher = more light from the Notch target reporter without active Notch
Hit rule: 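Wells with low control signal or poorly matching duplicates excluded; duplicates averaged; per source plate, z beyond ±2 for induced/control log2 ratio or beyond ±1.8 for induced/uninduced marks a hit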
Meaning of the calls: active = modifier hit (raised or lowered Notch signal); inactive = not a hit

predicted target | reagent no. | induced reporter light, run 1, well a | induced reporter light, run 1, well b | control promoter light, run 1, well a | control promoter light, run 1, well b | uninduced reporter light, run 1, well a | Call
AGBE (GeneID 326264) | 1 | 1.80e5 | 1.91e5 | 1.83e5 | 1.92e5 | 14370 | inactive
CG11726 (GeneID 39275) | 1 | 3.07e5 | 2.36e5 | 3.09e5 | 2.87e5 | 16250 | inactive
Polr2C (GeneID 34796) | 1 | 73455 | 77200 | 58900 | 57830 | 6232 | inactive
sm (GeneID 37254) | 1 | 1.13e5 | 1.27e5 | 1.24e5 | 1.50e5 | 9980 | inactive
sm (GeneID 37254) | 2 | 76245 | 1.04e5 | 2.02e5 | 1.82e5 | 7900 | inactive
CG3163 (GeneID 37836) | 1 | 1.89e5 | 1.77e5 | 1.81e5 | 1.97e5 | 13640 | inactive
CG11069 (GeneID 42976) | 1 | 1.79e5 | 1.98e5 | 2.46e5 | 2.38e5 | 13475 | inactive
CG33093 (GeneID 42654) | 1 | 1.90e5 | 1.69e5 | 2.92e5 | 2.80e5 | 13695 | inactive
SIFa (GeneID 3346202) | 1 | 1.49e5 | 1.35e5 | 1.51e5 | 1.63e5 | 10510 | inactive
cact (GeneID 34969) | 1 | 1.82e5 | 1.47e5 | 1.35e5 | 1.48e5 | 14945 | inactive
hwt (GeneID 32202) | 1 | 1.58e5 | 1.57e5 | 2.27e5 | 2.40e5 | 13465 | inactive
Fbxl7 (GeneID 41935) | 1 | 1.95e5 | 2.01e5 | 1.92e5 | 1.68e5 | 16720 | inactive
Cc2d2a (GeneID 36982) | 1 | 31165 | 33015 | 41285 | 37730 | 6425 | inactive
CG33922 (GeneID 3771945) | 1 | 1.03e5 | 98110 | 1.48e5 | 1.27e5 | 7465 | inactive
CG11110 (GeneID 37337) | 1 | 2.40e5 | 1.90e5 | 2.09e5 | 2.22e5 | 10525 | inactive
CG3021 (GeneID 53546) | 1 | 98560 | 93420 | 1.66e5 | 1.56e5 | 7360 | inactive
CG3021 (GeneID 53546) | 2 | 1.25e5 | 1.14e5 | 2.49e5 | 2.30e5 | 9235 | inactive
CG9240 (GeneID 32505) | 1 | 60780 | 76590 | 96005 | 48595 | 8480 | inactive
CG43897 (GeneID 39153) | 1 | 7650 | 6620 | 10535 | 8850 | 2745 | inactive
CG43897 (GeneID 39153) | 2 | 1.48e5 | 1.21e5 | 2.21e5 | 1.96e5 | 8490 | inactive
CG43897 (GeneID 39153) | 3 | – | – | – | – | – | inactive
Abl (GeneID 45821) | 1 | 2.72e5 | 2.01e5 | 2.58e5 | 2.43e5 | 8845 | inactive
Kap-alpha1 (GeneID 40160) | 1 | 1.62e5 | 1.19e5 | 1.17e5 | 91330 | 8415 | inactive
CG5516 (GeneID 41940) | 1 | 2.15e5 | 2.63e5 | 2.48e5 | 1.99e5 | 15885 | inactive
CG42445 (GeneID 8674111) | 1 | 1.25e5 | 1.27e5 | 71180 | 41035 | 9305 | inactive
CG32187 (GeneID 39980) | 1 | 2.28e5 | 2.26e5 | 2.68e5 | 2.27e5 | 9835 | inactive
CG7320 (GeneID 40010) | 1 | 1.18e5 | 1.10e5 | 1.69e5 | 1.45e5 | 8865 | inactive
CG34051 (GeneID 3885660) | 1 | 1.25e5 | 1.05e5 | 93610 | 1.01e5 | 9365 | inactive
ATPsynD (GeneID 42291) | 1 | 53655 | 46980 | 66200 | 71395 | 4515 | inactive
CG15128 (GeneID 37263) | 1 | 48870 | 41105 | 40535 | 53090 | 4365 | inactive

6 consecutive records from above:
predicted target | reagent no. | induced reporter light, run 1, well a | induced reporter light, run 1, well b | control promoter light, run 1, well a | control promoter light, run 1, well b | uninduced reporter light, run 1, well a | Call
CG5516 (GeneID 41940) | 1 | 2.15e5 | 2.63e5 | 2.48e5 | 1.99e5 | 15885 | inactive
CG42445 (GeneID 8674111) | 1 | 1.25e5 | 1.27e5 | 71180 | 41035 | 9305 | inactive
CG32187 (GeneID 39980) | 1 | 2.28e5 | 2.26e5 | 2.68e5 | 2.27e5 | 9835 | inactive
CG7320 (GeneID 40010) | 1 | 1.18e5 | 1.10e5 | 1.69e5 | 1.45e5 | 8865 | inactive
CG34051 (GeneID 3885660) | 1 | 1.25e5 | 1.05e5 | 93610 | 1.01e5 | 9365 | inactive
ATPsynD (GeneID 42291) | 1 | 53655 | 46980 | 66200 | 71395 | 4515 | inactive

Further reagents:
predicted target | reagent no. | induced reporter light, run 1, well a | induced reporter light, run 1, well b | control promoter light, run 1, well a | control promoter light, run 1, well b | uninduced reporter light, run 1, well a | Call
CG32021 (retired record) (GeneID 317825) | 1 | 1.20e5 | 1.22e5 | 2.15e5 | 2.05e5 | 8305 | inactive
CG9624 (GeneID 41730) | 1 | 3.14e5 | 2.53e5 | 2.51e5 | 2.62e5 | 20700 | inactive
CG6231 (GeneID 42339) | 1 | 1.89e5 | 1.77e5 | 1.82e5 | 1.94e5 | 13540 | inactive
Gr58a (GeneID 117344) | 1 | 79845 | 67475 | 80620 | 86715 | 8930 | inactive
CG12011 (GeneID 38211) | 1 | 1.15e5 | 1.21e5 | 1.56e5 | 1.88e5 | 8550 | inactive
CG10195 (GeneID 35228) | 1 | 40955 | 39710 | 43025 | 68735 | 2055 | inactive
Syn1 (GeneID 40424) | 1 | 1.17e5 | 1.08e5 | 94770 | 90160 | 7430 | inactive
Syn1 (GeneID 40424) | 2 | 1.53e5 | 96925 | 1.10e5 | 1.10e5 | 8750 | inactive
betaTry (GeneID 47901) | 1 | 1.04e5 | 1.03e5 | 1.26e5 | 1.22e5 | 9230 | inactive
CG12081 (GeneID 31799) | 1 | 1.69e5 | 1.86e5 | 2.02e5 | 1.86e5 | 13460 | inactive
mbc (GeneID 42817) | 1 | 1.95e5 | 1.92e5 | 2.38e5 | 2.20e5 | 14285 | inactive
CG13833 (GeneID 42718) | 1 | 1.77e5 | 1.72e5 | 2.15e5 | 1.95e5 | 15788 | inactive
CG10934 (GeneID 37013) | 1 | 87915 | 94155 | 1.88e5 | 1.70e5 | 8605 | inactive
EndoGI (GeneID 34953) | 1 | 1.38e5 | 1.32e5 | 1.51e5 | 1.68e5 | 10032 | inactive
CG10839 (GeneID 34944) | 1 | 1.36e5 | 1.49e5 | 1.38e5 | 1.53e5 | 11380 | inactive
Cyp9c1 (GeneID 37941) | 1 | 1.80e5 | 2.22e5 | 1.84e5 | 1.66e5 | 12955 | inactive
CG12531 (GeneID 32986) | 1 | 93860 | 89540 | 1.07e5 | 1.46e5 | 12710 | inactive
CG2861 (GeneID 31414) | 1 | 1.08e5 | 1.11e5 | 1.34e5 | 1.49e5 | 7330 | active
CG3611 (GeneID 37972) | 1 | 2.03e5 | 2.07e5 | 2.05e5 | 1.97e5 | 15015 | inactive
emb (GeneID 34167) | 1 | 74865 | 61070 | 54500 | 51970 | 8388 | active
Hsp60C (GeneID 33796) | 1 | 2.37e5 | 1.73e5 | 2.26e5 | 1.98e5 | 12015 | inactive
GCC185 (GeneID 41459) | 1 | 60675 | 1.01e5 | 64480 | 53650 | 4950 | inactive
Sirt7 (GeneID 43433) | 1 | 1.90e5 | 2.06e5 | 2.84e5 | 2.96e5 | 14100 | inactive
Nurf-38 (GeneID 37922) | 1 | 1.32e5 | 1.28e5 | 1.45e5 | 1.69e5 | 10520 | inactive
CG30099 (GeneID 36818) | 1 | 50025 | 37720 | 31585 | 39540 | 3828 | inactive
Sgs3 (GeneID 39288) | 1 | 1.72e5 | 1.64e5 | 2.41e5 | 1.86e5 | 10050 | inactive
Cpr62Bb (GeneID 38240) | 1 | 1.21e5 | 1.32e5 | 1.50e5 | 1.30e5 | 6160 | inactive
CG31924 (GeneID 319030) | 1 | 1.23e5 | 1.03e5 | 99665 | 73320 | 8845 | inactive
Bdp1 (GeneID 34748) | 1 | 2.04e5 | 2.46e5 | 1.79e5 | 1.72e5 | 18550 | inactive
CG9997 (GeneID 43395) | 1 | 7485 | 9660 | 12005 | 11228 | 660 | inactive
Dlic (GeneID 32057) | 1 | 1.49e5 | 1.34e5 | 1.68e5 | 1.66e5 | 11870 | inactive
Naa30A (GeneID 31079) | 1 | 64025 | 76690 | 35730 | 44405 | 7540 | inactive
Bet1 (GeneID 40094) | 1 | 1.05e5 | 92920 | 1.03e5 | 80620 | 5665 | inactive
BBS8 (GeneID 33217) | 1 | 1.09e5 | 1.02e5 | 96395 | 46570 | 8600 | inactive
